Earlier results as cited in patent US10912838B2, “Carrier for use in delivering drug, conjugate, composition comprising same, and method for administrating same” (THE UNIVERSITY OF TOKYO, priority 2013, dated 2021).
Counter-ions that a name gives are not always drawn.

Settings: literature value

For `COc1cc2c(cc1OC)C(=O)C(CC1CCN(Cc3ccccc3)CC1)C2` (stereo not shown) [donepezil hydrochloride], the “accumulation in the brain, of the total dose per g of the brain” value is given as 0.13%.
